Patent US20250145722A1, “ANTI-GAL3 ANTIBODIES AND METHODS OF USE” (TrueBinding, Inc., priority 2020, published 2025)
These are yes or no findings as the source states them, for the method shown. Some entries that bind do so weakly or less than the wild type.

Sequences of proteins named here, by UniProt entry; tags and fusion partners are left off. A change or cut given only in a name is not applied to a line headed by its entry.
UniProt P17931: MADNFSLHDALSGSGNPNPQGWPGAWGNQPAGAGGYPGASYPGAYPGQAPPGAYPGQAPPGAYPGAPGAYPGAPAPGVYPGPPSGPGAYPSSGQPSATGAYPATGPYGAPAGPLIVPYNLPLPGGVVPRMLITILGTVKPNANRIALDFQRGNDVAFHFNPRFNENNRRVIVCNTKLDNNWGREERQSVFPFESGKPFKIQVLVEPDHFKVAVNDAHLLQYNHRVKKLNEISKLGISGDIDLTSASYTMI

Columns and labels:
[1] = target: human Galectin-3 (Gal3), full-length recombinant (human) (UniProt P17931); test: titration of the antibody on a panel of galectins; set-up not given, species of the galectins not given
[2] = target: C-terminal domain of rhGal-3C (SinoBio #ME13SE2105 IM1-2), amino acids 112-250 (human) (UniProt P17931); test: condition: 300 nM (start of the dilution series by paragraph 897; not printed on the sheet); Gator biosensor kinetics (legend: SPR), 6H6 mIgG2a loaded on probes, rhGalectin-3-CRD as analyte
[3] = target: C-terminal domain of rhGal-3C (SinoBio #ME13SE2105 IM1-2), amino acids 112-250 (human) (UniProt P17931); test: Gator biosensor kinetics, antibody loaded on probe

Binder	binding [1]	binding [2]	binding [3]
TB006 (antibody, V domains shown) VH: QVQLVQSGAEVKKPGASVKVSCKASGYSFTNYYMHWVRQAPGQRLEWMGWIYPGSGNTNYNEKFQGRVTITADTSASTAYMELSSLRSEDTAVYYCSTAPGGFDVWGQGTTVTVSS VL: DIVMTQTPLSLSVTPGQPASISCKSSKSLLHSDGITYLYWYLQKPGQSPQLLIYRMSNLASGVPDRFSGSGSGTDFTLKISRVEAEDVGVYYCAQMLEFPLTFGQGTKLEIKR	binds		
6H6.2D6 (antibody, human IgG4 S228P, kappa, V domains shown) VH: QIQLVQSGPELKKPGETVKISCKASGYTFTTYGMSWVKQAPGKGLKWMAWINTYSGVPTYADDFKGRFAFSLETSASTAYLQINNLTNEDTATYFCARGPYAMDYWGQGTSVTVSS VL: DIQMTQTTSSLSASLGDRVTISCSASQGISNYLNWYQQKPDGTVKLLIYYTSSLHSGVPSRFSGSGSGTDYSLTISNLEPEDIATYYCQQYSELPYTFGSGTKLEIKR		no binding	no binding (tested: 300 nM)
